According to publication doi:10.1101/2020.12.22.423978:
No constants are given. Whether binding was seen depends on the method and setting. Binding seen in cells or lysates may run through a third protein. A yes stands for co-enrichment or nearness to the bait. Other partners may have been found.

Chains of the proteins cited; added tags and fusions are not shown.
UniProt E9PY46: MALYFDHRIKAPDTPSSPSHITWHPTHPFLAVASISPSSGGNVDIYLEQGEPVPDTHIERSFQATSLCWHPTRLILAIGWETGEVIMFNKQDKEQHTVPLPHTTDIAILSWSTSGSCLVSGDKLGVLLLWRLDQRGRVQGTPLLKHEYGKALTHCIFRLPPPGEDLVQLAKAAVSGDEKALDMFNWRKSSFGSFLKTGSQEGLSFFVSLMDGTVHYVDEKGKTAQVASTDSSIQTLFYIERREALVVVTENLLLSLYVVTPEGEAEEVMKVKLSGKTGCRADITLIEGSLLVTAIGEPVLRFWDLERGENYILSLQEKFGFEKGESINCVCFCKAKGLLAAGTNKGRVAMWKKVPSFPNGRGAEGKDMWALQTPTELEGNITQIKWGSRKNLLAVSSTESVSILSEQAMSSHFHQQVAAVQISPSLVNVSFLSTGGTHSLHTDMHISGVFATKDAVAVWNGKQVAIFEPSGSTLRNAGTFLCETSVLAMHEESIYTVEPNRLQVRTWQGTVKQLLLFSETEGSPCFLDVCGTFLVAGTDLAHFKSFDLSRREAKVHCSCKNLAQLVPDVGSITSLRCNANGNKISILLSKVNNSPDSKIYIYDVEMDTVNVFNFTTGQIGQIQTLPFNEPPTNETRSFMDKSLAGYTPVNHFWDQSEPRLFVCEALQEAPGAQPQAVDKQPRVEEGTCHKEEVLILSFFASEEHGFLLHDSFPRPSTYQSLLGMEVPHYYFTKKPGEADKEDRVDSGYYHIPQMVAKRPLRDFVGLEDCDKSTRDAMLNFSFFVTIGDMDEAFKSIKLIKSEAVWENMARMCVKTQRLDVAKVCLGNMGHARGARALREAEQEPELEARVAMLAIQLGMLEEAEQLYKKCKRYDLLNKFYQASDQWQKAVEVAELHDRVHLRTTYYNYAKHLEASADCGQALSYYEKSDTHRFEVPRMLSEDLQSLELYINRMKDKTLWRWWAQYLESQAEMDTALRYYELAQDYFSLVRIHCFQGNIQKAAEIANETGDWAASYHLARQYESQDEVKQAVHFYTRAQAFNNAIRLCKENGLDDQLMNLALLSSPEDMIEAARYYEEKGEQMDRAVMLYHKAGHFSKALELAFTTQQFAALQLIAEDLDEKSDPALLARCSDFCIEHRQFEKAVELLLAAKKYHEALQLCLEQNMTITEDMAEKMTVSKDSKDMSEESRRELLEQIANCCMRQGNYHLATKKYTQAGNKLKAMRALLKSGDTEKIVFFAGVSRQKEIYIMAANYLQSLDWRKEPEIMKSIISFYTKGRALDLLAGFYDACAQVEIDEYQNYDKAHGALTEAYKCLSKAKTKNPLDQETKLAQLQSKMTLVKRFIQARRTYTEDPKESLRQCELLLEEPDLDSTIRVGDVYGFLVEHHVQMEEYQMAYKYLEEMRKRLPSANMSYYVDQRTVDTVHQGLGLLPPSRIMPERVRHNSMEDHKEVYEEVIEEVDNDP

T1: IFT88 (mouse (endogenous in E11.5 embryos)) (UniProt Q61371)
T1 sequence: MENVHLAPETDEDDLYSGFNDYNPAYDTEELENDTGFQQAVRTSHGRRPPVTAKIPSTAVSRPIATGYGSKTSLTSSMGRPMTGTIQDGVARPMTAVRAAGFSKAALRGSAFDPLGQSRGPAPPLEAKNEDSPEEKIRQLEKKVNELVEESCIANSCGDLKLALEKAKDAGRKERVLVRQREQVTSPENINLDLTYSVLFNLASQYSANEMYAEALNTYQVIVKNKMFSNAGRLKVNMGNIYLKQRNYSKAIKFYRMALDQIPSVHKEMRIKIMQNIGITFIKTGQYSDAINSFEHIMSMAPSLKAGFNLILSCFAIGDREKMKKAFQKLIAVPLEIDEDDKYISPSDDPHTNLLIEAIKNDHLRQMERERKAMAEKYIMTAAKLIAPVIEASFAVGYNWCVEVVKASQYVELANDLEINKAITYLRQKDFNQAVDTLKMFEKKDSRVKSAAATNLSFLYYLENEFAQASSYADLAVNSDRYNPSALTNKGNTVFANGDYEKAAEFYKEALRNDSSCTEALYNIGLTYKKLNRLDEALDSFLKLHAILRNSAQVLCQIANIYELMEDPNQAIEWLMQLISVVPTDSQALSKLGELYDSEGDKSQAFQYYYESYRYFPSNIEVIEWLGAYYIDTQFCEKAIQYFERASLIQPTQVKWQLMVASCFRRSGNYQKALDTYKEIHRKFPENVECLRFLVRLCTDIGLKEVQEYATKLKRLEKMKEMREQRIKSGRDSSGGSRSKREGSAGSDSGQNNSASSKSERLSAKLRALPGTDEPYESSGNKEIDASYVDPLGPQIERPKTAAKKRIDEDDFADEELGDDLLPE


Assays:
[1] = molecular target: T1, IFT88 (mouse (endogenous in E11.5 embryos)); experiment: affinity purification with mass spectrometry
[2] = molecular target: IFT140 (mouse (endogenous in E11.5 embryos)) (UniProt E9PY46); experiment: affinity purification with mass spectrometry

Binder | binding [1] | binding [2]
IFT22/RABL5 (protein, UniProt Q9DAI2 1-185) MLKAKILFVGPCESGKTVLANFLTESSDITEYNPTQGVRILEFENPHVTSNNKGTGCEFELWDCGGDSKFESCWPALMKDAHGVVIVFNADIPSHLKEIEMWYSCFVQQQFLQDSHCMLVAHHKPGSGGERGSLALSPPLNKLKLVHSNLEEDPEEVRVEFIKYLKSIINSMSESRDREEMLIIT | binds | 
IFT144/WDR19 (protein, UniProt Q3UGF1 1-1341) MKRVFSLLEKSWLGAPIQFAWQKSSGNYLAVTGADYIVKIFDRHGQKRSEISLPGNCVTMDWDKDGDILAVIAEKSSCIYLWDANTNKTSQLDNGMRDQMSFLLWSKIGSFLAVGTIKGNLLIYNHQTSRKIPVLGKHTKKITCGCWNSENLLALGGEDKMITVSNQEGDTIRQTPVKSEPSDIKFSMSKTDERISSAENTISAVVGKKMLFLFHLNEPDNPVDLEFQQAYGNIVCYSWYGDGYIMIGFSRGTFLAISTHFPEVGQEIFKARDHKDNLTSVALSQTLNKAATCGDNCIKIHDLTELRDMYAIINLDDENKGLGTLSWTDDGQLLALSTQRGSLHVFLTKLPILGDACHTRIAYLTSLLEVTVANLIEGEPPITVSVDVEPTFVAVGLYHLAVGMNNRAWFYVLGENVVKKLKDVEYLGTVASICLHSDYAAALFEGKIQLHLIENEMLDAQEERETRLFPAVDDKCRILCHALTSDFLIYGTDTGIIHYFFIEDWQFVNDYRHPVGVKKLFPDPNGTRLVFIDEKSDGFVYCPVNDATYEIPDFSPTIKGVLWENWPMDKGVFIAYDDDKVYTYAFHKDTIQGSKVILAGSTKLPFSHKPLLLYNGELTCQTQSGKINSIYLSTHSFLGSMKDTEPTDLRQMLTQTLLLKRFSDAWDICKMLNDRTSWSELAKACLHHMEVEFAIRVSRTMGDVGTVMSLEQIKGIEDYNLLAGHLAMFTNDFNLAQDLYLASNCPVAALEMRRDLQHWDSALQLAKRLAPDQIPFISKEYAIQLEFTGDYVNALAHYEKGITGDNKEHDEVCLAGVAQMSIRMGDIRRGANQALKHPSRVLKRDCGAILENMKQFSEAAQLYEKGQYYDRAASVYIRCKNWAKVGELLPHVSSPKIHLQYAKAKEADGRYKEAVVAYENAKQWNSVIRIYLDHLNNPEKAVSIVRETQSLDGAKMVARFFLQLGDYGSAIQFLVLSKCNNEAFTLAQQHNKMEIYADIIGAEDTTNEDYQSIALYFEGEKRHFQAGKFFLLCGQYSRALKHFLKCPSSEDNVAIEMAIETVGQAKDELLTNQLIDHLMGESDGMPKDAKYLFRLYMALKQYREAARTAIIIAREEQSAGNYRNAHDVLFSMYAELKAQKIKIPSEMATNLMILHSYILVKIHVKSGDHMKGARMLIRVANNISKFPSHIVPILTSTVIECHRAGLKNSAFSFAAMLMRPEYRNKIDAKYKKKIEAMVRRPDTSETEEATTPCPFCQFLLPECELLCPGCKNNIPYCIATGRHMLKDDWTMCPHCGFPALYSEFKILLNSESTCPMCSERLNSSQLKKITDCSQYLRTEME |  | binds
IFT139/TTC21B/THM1 (protein, UniProt Q0HA38 1-1315) MDSQGLKTLINYYCQERYYHHVLLVASEGMKKYSSDPVFRFYHAYGTLMEGKAQEALREFEAIKNKQDVSLCSLMALMYVHKMSPNPDREAILELDTKMKEQRKEAGRKALYHAGLFLWHIGRHDKAREYIDRMSKMPHDSNEGPILKAWLDITRGKEPYAKKALRYFEEGLQDGNDIFALLGKVLCLEIRQNYSGALETVSQIIVNFPSFLPAFEKKMKLQLALQDWDQTVETAQRLLLQDNHNVEALRMLALYYLCREGDVEKAATKLENLGNALDVMEPQNAQLFYKITLAFSRTCGRNQLILQKVQSFLEKAFSLTPQQAEIATELGYQMILQGKVKEAWKWYRTAMTLNESNISAVTGLIRCQLIEGQLQDADQQLEFFSEFQQSMGKSAELMYLHAVLATKKNNRQDEVINLLNDVVNTHFSHLEDLPLGIQYFEKLNPDFLLEVVTEYLNLCPIQPAGPGQPLSPVLRRCSSVLETIIRSVPGLPQAVFLMAKVKYLSGDTEAAYNNLQHCLEHSPSYAEAHLLMAQVYLSQDKVKLCSQSLELCLSYNFNVREYPLYHLIKAQSQKKMGEVAEAIKTLHMAMNLPGMRRSRASSKSKHRTEVDASHRLSIFLELVEVHRLNGEQHEAAKVLQDAIHEFSGTCEELRVTIANADLALAQGDTDRALSMLRNVTTEQPYFIEAKEKMADIYLKHRKEKMLYITCYREIAERMPSPRSFLLLGDAYMNIQEPEEAIVAYEQALNQNPKDGTLARKIGKALVKTHNYSKAITYYEAALKSGQQNCLCYDLAELLLRLKLYEKAEKVLQHSLAHEPVSELSALMVDGRSQVLLAKVYSKMERPSDAIAALQQARELQARILKRVQMEQPDAVPSQKHFAAEICAEIAKHSAAQRDYEKAITFYREALVHCETDSKIMLELAQLYLAQEDLDASLRHCALLLQRDQDNEPATMLMADLMFRKQDYEQAVYHLQQLLDRKPDNFMTLSRLIDLLRRCGKLEDVPRFFLMAEKHNSRTKLEPGFQYCKGLHFWYTGEPNDALRHFNKARKDSDWGQNALYNMIEICLNPDNETIGGEVFENLNGDLGTSPEKQESVQLAVRTAEKLLKELKPQTVQGRLQLRIMENCCLMATKQKSSVEQALNTFTEIAASEKDHIPALLGMATAYMILKQTPKARNQLKRIAKMPWNPIEAEDLEKSWLLLADIYIQSAKYDMAEELLKRCLCHNRSCCKAYEYMGYIMEKEQAYTDAAFNYEMAWKHSNQTNPAVGYKLAFNYLKAKRYVDAIDVCHQVLEAHPTYPKIRKDILDKARASLRP |  | binds
WDR35/IFT121 (protein, UniProt Q8BND3 1-1181) MFFYLSKKIAVPNNVKLKCISWNKDQGFIACGGEDGLLKVLRLETQTDDSKLRGLAAPSNLSMNQNLEGHSGAVQVVTWNEQYQKLTTSDQNGLIIVWMLYKGSWYEEMINNRNKSVVRSMSWNADGQKICIVYEDGAVIVGSVDGNRIWGKDLKGIQLCHVTWSADSKILLFGMANGEIHIYDNQGNFIMKMKLNCLVNVTGAISIAGIHWYHGTEGYVEPDCPCLAICFDNGRCQIMRHENDQNPVLIDTGMYVVGIQWNHIGSVLAVAGSQKVVTQDKDINIVQFYTPFGEHLGTLKVPGKQMCSLSWEGGGLKIALAVDSFIYFANIRPDYKWGYCSNTVVYAYTRPDRPEYCVVFWDTKNSEKYVKYVKSLISITTCGDFCILATKADENHPQEENEMETFGATFVLVLCNSIGTPLDPKYIDLVPLFVAMTKTHVIAASKEAFYTWQYRVAKKLTALEINQITRSRKEGRERIYHVDDVPSGSVDGVFDYSKAIQGTRDPICAITASDKTLIVGRESGVIQRYSFPNVALIQKYSLDCRACQLSLNCNSSRLAIIDIAGVLTFFDLDTRVTDSTGQQVVGELLKLERKDVWDMKWAKDNPDLFAMMEKTRMYVFRNLDPEEPIQTSGYICNFEDLEIKSVLLDEILKDPEHPSKDYIMNFEIRSLRDSRALIEKVGIEDASQFIEDNPHPRLWRLLAEAALQKLDLYTAQQAFVRCKDYQGIKFVKLLGNLQSESMKQAEVIAYFGRFEDAERMYQDMDRRDLAIGLRMKLGDWFRVLQLLKTGSGDADDSLLEQANNAIGEYFADRQKWQNAVQYYVKGRNQERLAECYYMLEDYEGLETLANSLPENHKLLPEIAQMFVRVGMCEQAVSAFLKCNQPKAAVDTCVHLNQWNKAVELAKSHSMKEIGSLLARYASHLLEKNKTLDAIELYRKASYFFDAAKLMYKIADEEAKKRTKPLRVKKLYVLSALLIEQYHEQMKNAQRGKVKGKNSEATSALAGLLEEEVLSTTSRFTDNAWRGAEAYHFFILAQRQLYEGYVDTALKTALHLRDYEDIIPSVEIYSLLALCACASRAFGTCSKAFIKLESLETLSAEQKQQYEDLALEIFTKHTPKDNRKSELNSLLEGGEGKLPTCIATGSPIIEYQFWVCKVCKHYVLAQEISNYNFCPLCHSSVE |  | binds
IFT43 (protein, UniProt Q9DA69 1-206) MDDLLDLGEERRRSSATSGAKMGRRAHQESTQAENYLNSKNSSLTQTGEAPPPKPPRRQGGWADDSMKMAKLGKKVSEEMEDHRLRQQNLMGSDDDDIPVIPDLEDVQEEDFVLQVASPPSIQVNRVMTYRDLDNDLMKYSAFQTLDGEIDLKLLTKVLAPEHEVREDDVGWDWDHLYTEVSSELLTEWDLLRAEKEDPVGPSRYI |  | binds
